Assay results taken from paper PMC12624017.
No constants are given. Whether binding was seen depends on the method and setting. Binding seen in cells or lysates may run through a third protein. Some entries that bind do so weakly or less than the wild type.

Protein sequences, listed by entry. Tags and fused reporters are not part of them. Lines headed by an entry give the natural chain unless they say otherwise; changes in a name come on top.
UniProt Q9D281: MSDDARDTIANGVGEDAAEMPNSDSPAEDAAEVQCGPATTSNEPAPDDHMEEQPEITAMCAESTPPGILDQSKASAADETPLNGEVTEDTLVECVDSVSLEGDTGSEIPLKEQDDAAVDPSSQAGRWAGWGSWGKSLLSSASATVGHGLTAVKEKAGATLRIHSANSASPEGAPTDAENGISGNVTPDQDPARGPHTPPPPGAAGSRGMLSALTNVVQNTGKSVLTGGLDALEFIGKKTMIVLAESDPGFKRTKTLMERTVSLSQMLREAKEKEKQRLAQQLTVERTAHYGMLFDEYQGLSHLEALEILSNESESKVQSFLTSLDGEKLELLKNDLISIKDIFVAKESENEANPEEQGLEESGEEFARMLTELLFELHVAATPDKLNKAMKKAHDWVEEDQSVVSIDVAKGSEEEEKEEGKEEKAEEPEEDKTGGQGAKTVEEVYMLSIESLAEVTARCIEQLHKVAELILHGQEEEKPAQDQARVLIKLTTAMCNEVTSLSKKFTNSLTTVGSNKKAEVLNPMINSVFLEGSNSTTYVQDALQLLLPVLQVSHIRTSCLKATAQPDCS
UniProt Q8IWE2: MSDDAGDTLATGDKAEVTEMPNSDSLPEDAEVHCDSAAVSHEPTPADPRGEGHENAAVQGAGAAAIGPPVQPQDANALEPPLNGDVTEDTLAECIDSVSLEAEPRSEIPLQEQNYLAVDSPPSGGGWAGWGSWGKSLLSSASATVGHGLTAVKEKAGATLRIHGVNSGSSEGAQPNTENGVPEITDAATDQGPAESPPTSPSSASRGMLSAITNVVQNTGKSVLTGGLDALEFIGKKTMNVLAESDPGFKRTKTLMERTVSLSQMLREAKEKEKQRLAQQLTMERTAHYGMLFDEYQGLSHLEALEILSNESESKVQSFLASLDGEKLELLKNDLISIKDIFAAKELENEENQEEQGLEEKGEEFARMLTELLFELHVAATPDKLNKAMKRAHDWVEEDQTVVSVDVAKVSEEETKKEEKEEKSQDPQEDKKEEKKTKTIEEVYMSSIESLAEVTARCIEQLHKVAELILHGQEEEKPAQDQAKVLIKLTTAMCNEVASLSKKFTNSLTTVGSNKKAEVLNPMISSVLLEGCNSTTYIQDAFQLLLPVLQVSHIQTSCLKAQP
UniProt P27986: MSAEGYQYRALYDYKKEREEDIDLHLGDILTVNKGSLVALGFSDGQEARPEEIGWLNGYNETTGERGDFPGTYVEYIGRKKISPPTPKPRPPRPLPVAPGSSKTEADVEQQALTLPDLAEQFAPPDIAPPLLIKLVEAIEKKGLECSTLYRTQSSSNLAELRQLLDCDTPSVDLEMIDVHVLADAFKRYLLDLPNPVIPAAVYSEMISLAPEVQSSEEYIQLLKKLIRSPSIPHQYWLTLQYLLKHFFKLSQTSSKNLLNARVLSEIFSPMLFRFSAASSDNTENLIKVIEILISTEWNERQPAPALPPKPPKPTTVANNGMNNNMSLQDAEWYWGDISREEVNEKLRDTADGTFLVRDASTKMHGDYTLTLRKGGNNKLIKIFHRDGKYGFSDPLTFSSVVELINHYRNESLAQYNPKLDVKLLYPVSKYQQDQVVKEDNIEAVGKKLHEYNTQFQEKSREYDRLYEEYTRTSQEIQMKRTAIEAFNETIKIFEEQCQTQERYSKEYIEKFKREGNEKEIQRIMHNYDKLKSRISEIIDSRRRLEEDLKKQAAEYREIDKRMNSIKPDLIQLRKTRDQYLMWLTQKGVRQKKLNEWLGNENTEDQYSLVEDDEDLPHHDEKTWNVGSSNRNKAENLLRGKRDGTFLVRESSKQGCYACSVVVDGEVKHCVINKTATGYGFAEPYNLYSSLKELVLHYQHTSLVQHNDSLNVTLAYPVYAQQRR
UniProt P26450: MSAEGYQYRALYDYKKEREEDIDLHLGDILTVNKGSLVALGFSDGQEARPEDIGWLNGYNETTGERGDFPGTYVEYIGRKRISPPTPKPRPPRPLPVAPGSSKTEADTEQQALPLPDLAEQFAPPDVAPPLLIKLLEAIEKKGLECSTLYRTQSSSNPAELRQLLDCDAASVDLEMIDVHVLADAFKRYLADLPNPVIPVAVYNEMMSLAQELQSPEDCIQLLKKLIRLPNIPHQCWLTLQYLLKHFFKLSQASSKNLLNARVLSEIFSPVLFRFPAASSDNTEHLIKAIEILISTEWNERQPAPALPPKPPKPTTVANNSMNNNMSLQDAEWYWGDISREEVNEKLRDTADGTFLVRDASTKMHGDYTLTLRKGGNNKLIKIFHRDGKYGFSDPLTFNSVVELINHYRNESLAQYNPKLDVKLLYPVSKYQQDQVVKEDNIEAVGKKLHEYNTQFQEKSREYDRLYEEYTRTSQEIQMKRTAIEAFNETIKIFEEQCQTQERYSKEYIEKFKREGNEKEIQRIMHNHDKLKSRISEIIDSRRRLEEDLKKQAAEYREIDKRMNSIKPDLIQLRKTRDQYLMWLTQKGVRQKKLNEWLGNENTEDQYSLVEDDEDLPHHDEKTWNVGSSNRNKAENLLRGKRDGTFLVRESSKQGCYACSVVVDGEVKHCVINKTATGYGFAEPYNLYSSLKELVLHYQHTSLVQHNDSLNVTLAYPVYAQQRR
UniProt Q16254: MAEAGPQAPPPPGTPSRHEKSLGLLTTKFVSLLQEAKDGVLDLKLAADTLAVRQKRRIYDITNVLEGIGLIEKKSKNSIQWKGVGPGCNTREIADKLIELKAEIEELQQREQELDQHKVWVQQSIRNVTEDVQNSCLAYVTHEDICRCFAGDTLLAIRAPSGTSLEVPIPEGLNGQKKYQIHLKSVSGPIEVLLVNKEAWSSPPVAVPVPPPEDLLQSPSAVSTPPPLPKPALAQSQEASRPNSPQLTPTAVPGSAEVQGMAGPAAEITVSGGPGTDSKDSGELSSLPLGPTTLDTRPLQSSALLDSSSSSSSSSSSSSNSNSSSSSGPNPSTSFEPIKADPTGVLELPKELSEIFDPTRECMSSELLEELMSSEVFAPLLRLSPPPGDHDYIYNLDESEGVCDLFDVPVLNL
UniProt Q8R0K9: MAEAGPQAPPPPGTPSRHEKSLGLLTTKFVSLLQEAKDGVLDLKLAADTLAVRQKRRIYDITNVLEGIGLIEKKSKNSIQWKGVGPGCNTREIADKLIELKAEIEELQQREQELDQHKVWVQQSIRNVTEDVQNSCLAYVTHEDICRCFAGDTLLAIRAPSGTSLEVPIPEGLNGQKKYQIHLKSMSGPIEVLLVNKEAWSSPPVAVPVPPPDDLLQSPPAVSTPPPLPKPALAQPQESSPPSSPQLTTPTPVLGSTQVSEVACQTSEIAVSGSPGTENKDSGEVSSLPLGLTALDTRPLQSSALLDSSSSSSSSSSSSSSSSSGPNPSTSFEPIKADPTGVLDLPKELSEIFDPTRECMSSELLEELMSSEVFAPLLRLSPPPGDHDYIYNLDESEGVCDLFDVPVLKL

Columns and labels:
[1] = biological target: family with sequence similarity 114 member A1 (FAM114A1), endogenous in Py8119 cells (mouse (endogenous in Py8119)) (UniProt Q9D281); assay: co-IP; Py8119 tumor cell lysates (IP lysis buffer: 20 mM Tris pH 7.4, 0.15 M NaCl, 1 mM EDTA, 1 mM EGTA, 1% Triton X-100) precipitated with anti-FAM114A1, anti-p85α, anti-E2F4 or IgG control overnight at 4 °C, protein A/G magnetic beads; western blot
[2] = biological target: FAM114A1-Myc (human (cDNA from HEK293T)) (UniProt Q8IWE2); assay: co-IP; 293T cells cotransfected with the indicated plasmids, lysed 24 h after transfection; anti-Myc or anti-GFP precipitation as indicated; western blot
[3] = biological target: p85α, wild type, transfected in 293T cells (human (cDNA from HEK293T)) (UniProt P27986); assay: co-IP; competition: FAM114A1 recombinant protein in the indicated amounts added for 2 h to beads that held the p85α/p110α co-IP from cotransfected 293T cells; washed; western blot; only the binder purified
[4] = biological target: p85α, endogenous in Py8119 cells (mouse (endogenous in Py8119)) (UniProt P26450); assay: co-IP; Py8119 cells stably expressing FAM114A1 (OE) or vector; p110α that interacted with p85α detected by western blot and normalised to total p110α

| Substance | binding [1] | binding [2] | further results |
| --- | --- | --- | --- |
| p85α, endogenous in Py8119 cells (from UniProt P26450 1-724) | binds |  |  |
| E2F4-GFP, wild type (from UniProt Q16254 1-413) |  | binds |  |
| E2F Transcription Factor 4 (E2F4), endogenous in Py8119 cells (from UniProt Q8R0K9 1-410) | binds |  |  |
| GST-FAM114A1 recombinant protein (from UniProt Q8IWE2 1-563) |  |  | binding [3]: binds |
| p85α, wild type, transfected in 293T cells (from UniProt P27986 1-724) |  | binds |  |
| FAM114A1 stably overexpressed in Py8119 cells (from UniProt Q8IWE2 1-563) |  |  | binding [4]: binds |
